Source: the supplement of paper PMC8497498
The list shows a part of the results. The data scatter; read single values as rough.

Legend:
Conditions in all cases: 10 µM
[1] = test system: Plasmodium vivax liver stage (primary human hepatocyte culture); test: hypnozoite quantity inhibition (% inhibition); higher = more active against hypnozoites
[2] = test system: Plasmodium vivax liver stage (primary human hepatocyte culture); test: schizont net growth area inhibition (% inhibition); higher = more active against liver schizonts
[3] = test system: primary human hepatocytes; test: hepatic nuclei reduction relative to DMSO (100 - % of negative control); higher = more toxic to hepatocytes
[4] = assay mode: Prophylactic (treated before or shortly after infection), fixed day 6 post-infection
[5] = assay mode: Radical Cure (treated from day 5 post-infection for 3 days), fixed day 8 post-infection

## O=C(Nc1ccc(-c2nc3cc4ccccc4cc3[nH]2)cc1)c1cccc(Br)c1
[1]; [4]
  hypnozoite quantity inhibition: -5
[1]; [5]
  hypnozoite quantity inhibition: 29
[2]; [4]
  schizont net growth area inhibition: 21.6
[2]; [5]
  schizont net growth area inhibition: -4.9
[3]; [4]
  hepatic nuclei reduction: 7%
[3]; [5]
  hepatic nuclei reduction: -4%

## CCNCc1cc(Nc2ccnc3cc(Cl)ccc23)ccc1O
[1]; [4]
  hypnozoite quantity inhibition: -46
[1]; [5]
  hypnozoite quantity inhibition: 18
[2]; [4]
  schizont net growth area inhibition: 90.4
[2]; [5]
  schizont net growth area inhibition: 30.5
[3]; [4]
  hepatic nuclei reduction: -1%
[3]; [5]
  hepatic nuclei reduction: -5%

## CC(C)(C)n1nc(Cc2cccc3ccccc23)c2c(N)ncnc21
[1]; [4]
  hypnozoite quantity inhibition: -5
[1]; [5]
  hypnozoite quantity inhibition: -77
[2]; [4]
  schizont net growth area inhibition: -4
[2]; [5]
  schizont net growth area inhibition: -18.4
[3]; [4]
  hepatic nuclei reduction: -10%
[3]; [5]
  hepatic nuclei reduction: -11%

## CS(=O)(=O)Cc1nc2ccccc2oc1=O
[1]; [4]
  hypnozoite quantity inhibition: 5
[1]; [5]
  hypnozoite quantity inhibition: 1
[2]; [4]
  schizont net growth area inhibition: -21
[2]; [5]
  schizont net growth area inhibition: -13.6
[3]; [4]
  hepatic nuclei reduction: -4%
[3]; [5]
  hepatic nuclei reduction: -11%

## CC(C)c1ccc(CNCC(O)c2ccccc2)cc1 (stereo unspecified)
[1]; [4]
  hypnozoite quantity inhibition: 10.6
[1]; [5]
  hypnozoite quantity inhibition: 19.8
[2]; [4]
  schizont net growth area inhibition: 2.5
[2]; [5]
  schizont net growth area inhibition: -14.6
[3]; [4]
  hepatic nuclei reduction: -2%
[3]; [5]
  hepatic nuclei reduction: 0%

## N#Cc1ccc(-c2cnc(N)c(-c3ccc(C(N)=O)cc3)n2)cc1
[1]; [4]
  hypnozoite quantity inhibition: 113
[1]; [5]
  hypnozoite quantity inhibition: -24
[2]; [4]
  schizont net growth area inhibition: 106
[2]; [5]
  schizont net growth area inhibition: 97.2
[3]; [4]
  hepatic nuclei reduction: -4%
[3]; [5]
  hepatic nuclei reduction: -6%

## CCC1OC(=O)C(C)C(OC2CC(C)(OC)C(O)C(C)O2)C(C)C(OC2OC(C)CC(N(C)C)C2O)C(C)(O)CC(C)CN(C)C(C)C(O)C1(C)O (stereo unspecified)
[1]; [4]
  hypnozoite quantity inhibition: -59
[1]; [5]
  hypnozoite quantity inhibition: 4
[2]; [4]
  schizont net growth area inhibition: 39.5
[2]; [5]
  schizont net growth area inhibition: 34.1
[3]; [4]
  hepatic nuclei reduction: 0%
[3]; [5]
  hepatic nuclei reduction: 0%

## NCC(c1cccs1)S(=O)(=O)c1ccccc1 (stereo unspecified)
[1]; [4]
  hypnozoite quantity inhibition: 12
[1]; [5]
  hypnozoite quantity inhibition: -5
[2]; [4]
  schizont net growth area inhibition: -45.5
[2]; [5]
  schizont net growth area inhibition: -32.3
[3]; [4]
  hepatic nuclei reduction: -9%
[3]; [5]
  hepatic nuclei reduction: 6%

## O=C(NC1CCCCC1)N1CCN(Cc2ccc3c(c2)OCO3)CC1
[1]; [4]
  hypnozoite quantity inhibition: -13
[1]; [5]
  hypnozoite quantity inhibition: -10
[2]; [4]
  schizont net growth area inhibition: 10.8
[2]; [5]
  schizont net growth area inhibition: 15
[3]; [4]
  hepatic nuclei reduction: 1%
[3]; [5]
  hepatic nuclei reduction: -4%

## O=C(Nc1cccc(-c2nc3ccccc3[nH]2)c1)c1cccc(NC(=O)c2ccco2)c1
[1]; [4]
  hypnozoite quantity inhibition: 10.1
[1]; [5]
  hypnozoite quantity inhibition: 59.1
[2]; [4]
  schizont net growth area inhibition: 80.5
[2]; [5]
  schizont net growth area inhibition: 46.8
[3]; [4]
  hepatic nuclei reduction: 5%
[3]; [5]
  hepatic nuclei reduction: -4%

## O=c1c2c([nH]c3ccccc13)CCCC2
[1]; [4]
  hypnozoite quantity inhibition: -11.4
[1]; [5]
  hypnozoite quantity inhibition: -3.5
[2]; [4]
  schizont net growth area inhibition: 71
[2]; [5]
  schizont net growth area inhibition: -64.2
[3]; [4]
  hepatic nuclei reduction: -2%
[3]; [5]
  hepatic nuclei reduction: -13%

## CN(C)c1ccc(N2C(N)=NC(N)=NC2(C)C)cc1
[1]; [4]
  hypnozoite quantity inhibition: 3.8
[1]; [5]
  hypnozoite quantity inhibition: 37.4
[2]; [4]
  schizont net growth area inhibition: -47.5
[2]; [5]
  schizont net growth area inhibition: -26.8
[3]; [4]
  hepatic nuclei reduction: -1%
[3]; [5]
  hepatic nuclei reduction: -5%

## Brc1cncc(-c2cc(NCCCn3ccnc3)nc(-c3ccccc3)n2)c1
[1]; [4]
  hypnozoite quantity inhibition: 27
[1]; [5]
  hypnozoite quantity inhibition: -31
[2]; [4]
  schizont net growth area inhibition: -0.3
[2]; [5]
  schizont net growth area inhibition: -116
[3]; [4]
  hepatic nuclei reduction: 3%
[3]; [5]
  hepatic nuclei reduction: -15%

## CCCCNc1nc(NC(C)(C)C)nc(NC(C)(C)C)n1
[1]; [4]
  hypnozoite quantity inhibition: 15.1
[1]; [5]
  hypnozoite quantity inhibition: 74.8
[2]; [4]
  schizont net growth area inhibition: 54.9
[2]; [5]
  schizont net growth area inhibition: 64.4
[3]; [4]
  hepatic nuclei reduction: -11%
[3]; [5]
  hepatic nuclei reduction: -2%

## Cc1oncc1C(=O)Nc1ccc(C(F)(F)F)cc1
[1]; [4]
  hypnozoite quantity inhibition: 22
[1]; [5]
  hypnozoite quantity inhibition: -54
[2]; [4]
  schizont net growth area inhibition: 21.7
[2]; [5]
  schizont net growth area inhibition: -33.6
[3]; [4]
  hepatic nuclei reduction: 4%
[3]; [5]
  hepatic nuclei reduction: -4%

## Nc1ccc(C(=O)Nc2ccc(-c3nc4ccccc4o3)cc2)cc1
[1]; [4]
  hypnozoite quantity inhibition: -15
[1]; [5]
  hypnozoite quantity inhibition: 4
[2]; [4]
  schizont net growth area inhibition: 9.6
[2]; [5]
  schizont net growth area inhibition: -4.9
[3]; [4]
  hepatic nuclei reduction: -11%
[3]; [5]
  hepatic nuclei reduction: -2%

## CO[C@H]1/C=C/O[C@@]2(C)Oc3c(C)c(O)c4c(O)c(c(/C=N/N5CCN(C)CC5)c(O)c4c3C2=O)NC(=O)/C(C)=C\C=C\[C@@H](C)[C@@H](O)[C@@H](C)[C@H](O)[C@H](C)[C@@H](OC(C)=O)[C@H]1C
[1]; [4]
  hypnozoite quantity inhibition: 0
[1]; [5]
  hypnozoite quantity inhibition: 14
[2]; [4]
  schizont net growth area inhibition: -94.2
[2]; [5]
  schizont net growth area inhibition: 12.2
[3]; [4]
  hepatic nuclei reduction: -5%
[3]; [5]
  hepatic nuclei reduction: 6%

## COc1cccc(-c2cc3c(Nc4cccnc4)nccc3[nH]2)c1
[1]; [4]
  hypnozoite quantity inhibition: -3
[1]; [5]
  hypnozoite quantity inhibition: -22
[2]; [4]
  schizont net growth area inhibition: -7.8
[2]; [5]
  schizont net growth area inhibition: -33.6
[3]; [4]
  hepatic nuclei reduction: -7%
[3]; [5]
  hepatic nuclei reduction: -9%

## O=C(NC1CC1)c1ccc(CSCc2ccccc2Cl)o1
[1]; [4]
  hypnozoite quantity inhibition: 12
[1]; [5]
  hypnozoite quantity inhibition: -27
[2]; [4]
  schizont net growth area inhibition: 0.6
[2]; [5]
  schizont net growth area inhibition: 7.8
[3]; [4]
  hepatic nuclei reduction: -7%
[3]; [5]
  hepatic nuclei reduction: 5%

## COc1ccc(C(=O)NC(c2ccc(Cl)cc2Cl)c2cc(Cl)c3cccnc3c2O)cc1 (stereo unspecified)
[1]; [4]
  hypnozoite quantity inhibition: 24
[1]; [5]
  hypnozoite quantity inhibition: -3.5
[2]; [4]
  schizont net growth area inhibition: 25.4
[2]; [5]
  schizont net growth area inhibition: -18.8
[3]; [4]
  hepatic nuclei reduction: -6%
[3]; [5]
  hepatic nuclei reduction: -1%

## COC(=O)c1ccc(F)cc1NS(=O)(=O)c1cccc(-c2cnn(Cc3ccccc3)c2)c1
[1]; [4]
  hypnozoite quantity inhibition: 34
[1]; [5]
  hypnozoite quantity inhibition: -38
[2]; [4]
  schizont net growth area inhibition: 17.2
[2]; [5]
  schizont net growth area inhibition: -51.2
[3]; [4]
  hepatic nuclei reduction: -4%
[3]; [5]
  hepatic nuclei reduction: -6%

## Cc1ccc(CSCc2ccc(C(=O)NC3CC3)o2)cc1
[1]; [4]
  hypnozoite quantity inhibition: 5.7
[1]; [5]
  hypnozoite quantity inhibition: 29.2
[2]; [4]
  schizont net growth area inhibition: -14.3
[2]; [5]
  schizont net growth area inhibition: -20.7
[3]; [4]
  hepatic nuclei reduction: 2%
[3]; [5]
  hepatic nuclei reduction: 1%

## O=C(Nc1ccnc(-c2cccnc2)n1)c1cc(C(F)(F)F)cc(C(F)(F)F)c1
[1]; [4]
  hypnozoite quantity inhibition: 14
[1]; [5]
  hypnozoite quantity inhibition: -23
[2]; [4]
  schizont net growth area inhibition: 14.2
[2]; [5]
  schizont net growth area inhibition: -47.7
[3]; [4]
  hepatic nuclei reduction: -7%
[3]; [5]
  hepatic nuclei reduction: 0%

## O=C(Nc1cccnn1)N1CCC(=Cc2cccc(Oc3ccc(C(F)(F)F)cn3)c2)CC1
[1]; [4]
  hypnozoite quantity inhibition: 51
[1]; [5]
  hypnozoite quantity inhibition: 42
[2]; [4]
  schizont net growth area inhibition: 48.6
[2]; [5]
  schizont net growth area inhibition: -14.3
[3]; [4]
  hepatic nuclei reduction: 3%
[3]; [5]
  hepatic nuclei reduction: -8%

## CCOC(=O)c1cnc2ccc(Cl)cc2c1NCCCN(C)C
[1]; [4]
  hypnozoite quantity inhibition: 6.1
[1]; [5]
  hypnozoite quantity inhibition: 38.2
[2]; [4]
  schizont net growth area inhibition: -31
[2]; [5]
  schizont net growth area inhibition: 41.5
[3]; [4]
  hepatic nuclei reduction: -1%
[3]; [5]
  hepatic nuclei reduction: 8%

## CCOC(=O)c1cn(CC)c2cc(N(C)CCc3ccc(OC)c(OC)c3)c(F)cc2c1=O
[1]; [4]
  hypnozoite quantity inhibition: 10.7
[1]; [5]
  hypnozoite quantity inhibition: 21
[2]; [4]
  schizont net growth area inhibition: 5
[2]; [5]
  schizont net growth area inhibition: -9.3
[3]; [4]
  hepatic nuclei reduction: 6%
[3]; [5]
  hepatic nuclei reduction: 0%
